Common to all, as to assay: SEC
Assay [1] deals with T1, Psy3 (native, tag-free) (S. cerevisiae) (UniProt Q12318).
T1 sequence: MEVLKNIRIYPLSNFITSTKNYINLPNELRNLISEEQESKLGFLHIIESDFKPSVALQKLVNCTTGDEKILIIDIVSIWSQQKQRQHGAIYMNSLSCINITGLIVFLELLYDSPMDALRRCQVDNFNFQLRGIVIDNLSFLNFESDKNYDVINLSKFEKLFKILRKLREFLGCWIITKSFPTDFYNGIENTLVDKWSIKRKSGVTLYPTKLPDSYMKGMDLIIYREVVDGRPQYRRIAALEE

For a further assay, the target named is T2, Shu2 (S. cerevisiae) (UniProt P38957).
T2 sequence: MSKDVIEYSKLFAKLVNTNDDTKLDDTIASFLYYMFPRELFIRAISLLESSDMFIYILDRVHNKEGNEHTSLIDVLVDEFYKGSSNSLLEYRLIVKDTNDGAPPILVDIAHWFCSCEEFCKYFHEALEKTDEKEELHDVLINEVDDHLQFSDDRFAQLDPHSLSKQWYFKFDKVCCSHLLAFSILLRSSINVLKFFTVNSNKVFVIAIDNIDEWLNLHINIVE

Assay [2] concerns the target T3, Psy3 K52A (S. cerevisiae) (UniProt Q12318).
T3 sequence: T1 sequence with K52A

Assay [3] deals with T4, Psy3 D136A (S. cerevisiae) (UniProt Q12318).
T4 sequence: T1 sequence with D136A

Assay [4] concerns the target T5, Psy3 with a His-MBP tag (S. cerevisiae) (UniProt Q12318).
T5 sequence: T1 sequence

This note sets out measurements from article doi:10.1101/2024.04.22.590616.

Changes are numbered by the printed parent chain. In names and notes the source's numbering stands. These are yes or no findings as the source states them, for the method shown. Some entries that bind do so weakly or less than the wild type. For some of these results: Sequences can lack the tags named with a protein.

B1: Csm2 (protein, UniProt P40465 1-213)
chain: MEYEDLELITIWPSPTKNKLCQFIKQNLSKEHVVTQLFFIDATSSFPLSQFQKLVPPTLPENVRIYENIRINTCLDLEELSAITVKLLQILSMNKINAQRGTEDAVTEPLKIILYINGLEVMFRNSQFKSSPQRSHELLRDTLLKLRVMGNDENENASIRTLLEFPKEQLLDYYLKKNNNTRTSSVRSKRRRIKNGDSLAEYIWKYYADSLFE
For B1, the binding result (in assay [1]; in the assay with Shu2 (S. cerevisiae); in assay [2]; in assay [3]; in assay [4]) was “binds” in each case.

B2: Csm2 K189A/R190A/R191A/R192A (protein, UniProt P40465 1-213)
chain: B1 chain with K189A, R190A, R191A, R192A
As to B2, the binding entry in the assay with Shu2 (S. cerevisiae) is given as “binds”.

B3: Shu1 (protein, UniProt P38751 1-150)
chain: MQFEERLQQLVESDWSLDQSSPNVLVIVLGDTARKYVELGGLKEHVTTNTVAGHVASRERVSVVFLGRVKYLYMYLTRMQAQANGPQYSNVLVYGLWDLTATQDGPQQLRLLSLVLRQCLSLPSKVEFYPEPPSSSVPARLLRFWDHIIR
For the molecule B3, the binding entry with Shu2 (S. cerevisiae) is reported as “binds”.

B4: Psy3 (native, tag-free) (protein, UniProt Q12318 1-242)
chain: T1 sequence
Regarding B4, the binding result with Shu2 (S. cerevisiae) is given as “binds”.

B5: Psy3 K52A (protein, UniProt Q12318 1-242)
chain: T1 sequence with K52A
Turning to B5, the binding result with Shu2 (S. cerevisiae) is “binds”.

B6: Psy3 D136A (protein, UniProt Q12318 1-242)
chain: T1 sequence with D136A
For B6, in the assay with Shu2 (S. cerevisiae), the binding entry is on record as “binds”.
